This is an account of results in publication PMC6514012, “Targeting the neuronal calcium sensor DREAM with small-molecules for Huntington’s disease treatment” (Scientific Reports, 2019).

Amino acid sequences for entries named in this document (tags omitted). Residues count along the entry.
UniProt P18850, residues 306-369: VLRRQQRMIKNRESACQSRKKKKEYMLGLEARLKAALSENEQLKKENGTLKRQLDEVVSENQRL

Results are given in words; binding and its absence hold for the method and conditions named. Binding seen in cells or lysates may run through a third protein. Some binding calls cover weakened binding; strength is not graded here. Tags and fused reporters may be left off the sequences shown.

In the assay the target is T1, Myc-DREAM (aa 71–256) (UniProt Q9Y2W7).
T1 sequence: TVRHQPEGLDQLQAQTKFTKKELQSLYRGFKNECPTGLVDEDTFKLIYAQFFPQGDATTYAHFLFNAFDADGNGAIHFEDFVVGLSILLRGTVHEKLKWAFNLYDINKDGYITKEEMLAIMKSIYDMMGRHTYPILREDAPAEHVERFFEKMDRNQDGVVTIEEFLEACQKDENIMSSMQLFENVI
The assay is described as follows: co-IP; whole cell extracts (200 ug) of cotransfected HEK293-T cells; immunoprecipitation with rabbit anti-Myc, blot with mouse anti-Flag; 2 mM calcium; vehicle (DMSO) or IQM-PC330 (30, 100 and 300 nM).

As for “Flag-ATF6 (bZIP fragment aa 306–369) (from UniProt P18850 306-369) (domain or fragment)”, the binding result is “binds”.
